From the supplement of paper PMC10735217
The list shows a part of the results. Repeats in this data set agree poorly, so a single value says little.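 In a drug-repurposing library screen, luminescence reads luciferase driven by eight TEAD-binding elements, stably integrated into human kidney-derived cells. Compounds scoring over five robust Z scores above the plate mean are called hits.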

Tested on: HEK293A TEAD-LUC reporter
Test: TEAD-luciferase reporter activity (YAP activation), robust Z score vs plate; higher = stronger YAP/TEAD activation
Details: 24 h

For NC(=O)C(F)(F)C(O)(Cn1cncn1)c1ccc(F)cc1F (stereo not drawn), the TEAD-luciferase reporter activity (compound concentration: 200 nM) was inactive: 3.62, the TEAD-luciferase reporter activity (compound concentration: 2 uM) was inactive: 0.254 and the TEAD-luciferase reporter activity (compound concentration: 10 uM) was inactive: -0.67.
For Cc1cccc(C(=O)N2CCC(N3CCC(Cc4ccc(S(=O)(=O)c5cccc(Cl)c5)cc4)CC3)CC2)c1N, the TEAD-luciferase reporter activity (compound concentration: 200 nM) was inactive: -0.671, the TEAD-luciferase reporter activity (compound concentration: 2 uM) was inactive: -1.11 and the TEAD-luciferase reporter activity (compound concentration: 10 uM) was inactive: -1.3.
CC(C)=CCOc1cc(NC(=S)c2ccccc2)ccc1Cl was tested, and the TEAD-luciferase reporter activity (compound concentration: 200 nM) was inactive: 0.338, the TEAD-luciferase reporter activity (compound concentration: 2 uM) was inactive: 3.27 and the TEAD-luciferase reporter activity (compound concentration: 10 uM) was inactive: 3.15.
For Cc1ccc(C(=O)N(CCCN)[C@@H](c2oc3cc(Cl)ccc3c(=O)c2Cc2ccccc2)C(C)C)cc1, the TEAD-luciferase reporter activity (compound concentration: 200 nM) was inactive: -0.553, the TEAD-luciferase reporter activity (compound concentration: 2 uM) was inactive: 1.17 and the TEAD-luciferase reporter activity (compound concentration: 10 uM) was inactive: -2.23.
With Nc1ccc(C(=O)O)cc1 the TEAD-luciferase reporter activity (compound concentration: 200 nM) was inactive: 1.81, the TEAD-luciferase reporter activity (compound concentration: 2 uM) was inactive: -0.58 and the TEAD-luciferase reporter activity (compound concentration: 10 uM) was inactive: 0.344.
With O=C(O)c1cnc(N2C[C@@H]3[C@H](C2)[C@H]3NCc2ccc3cc(F)ccc3n2)nc1 the TEAD-luciferase reporter activity (compound concentration: 200 nM) was inactive: -0.879, the TEAD-luciferase reporter activity (compound concentration: 2 uM) was inactive: -1.29 and the TEAD-luciferase reporter activity (compound concentration: 10 uM) was inactive: -0.698.
CC(=O)OCC(=O)[C@@]1(O)CC[C@H]2[C@@H]3CCC4=CC(=O)CC[C@]4(C)[C@@]3(F)[C@@H](O)C[C@@]21C [Fludrocortisone (acetate)] was tested, and the TEAD-luciferase reporter activity (compound concentration: 2 uM) was inactive: -0.857.
With CC(=O)OCC(=O)[C@@]1(O)CC[C@H]2[C@@H]3CCC4=CC(=O)CC[C@]4(C)[C@@]3(F)[C@@H](O)C[C@@]21C [Fludrocortisone acetate] the TEAD-luciferase reporter activity (compound concentration: 2 uM) was inactive: 0.714.
CC(=O)OCC(=O)[C@@]1(O)CC[C@H]2[C@@H]3CCC4=CC(=O)CC[C@]4(C)[C@@]3(F)[C@@H](O)C[C@@]21C [dexamethasone acetate, Laboratoires CTRS] was tested, and the TEAD-luciferase reporter activity (compound concentration: 200 nM) was inactive: -0.146 and the TEAD-luciferase reporter activity (compound concentration: 10 uM) was inactive: 1.48.
In the case of CC[C@H](NC(=O)c1c(O)c(-c2ccccc2)nc2ccccc12)c1ccccc1 [talnetant], the TEAD-luciferase reporter activity (compound concentration: 200 nM) is reported as inactive: -0.944, the TEAD-luciferase reporter activity (compound concentration: 2 uM) is reported as inactive: -0.5 and the TEAD-luciferase reporter activity (compound concentration: 10 uM) is reported as inactive: 0.0867.
CCCN(CCCCCCNCCc1ccccc1)C1CCc2c(ccc(O)c2O)C1 (stereo not drawn) was tested, and the TEAD-luciferase reporter activity (compound concentration: 200 nM) was inactive: -1.7, the TEAD-luciferase reporter activity (compound concentration: 2 uM) was inactive: -0.814 and the TEAD-luciferase reporter activity (compound concentration: 10 uM) was inactive: 0.0935.
For c1ccc(C(CCN2CCCCCC2)c2ccccc2)cc1, the TEAD-luciferase reporter activity (compound concentration: 200 nM) was inactive: -0.999, the TEAD-luciferase reporter activity (compound concentration: 2 uM) was inactive: -1.8 and the TEAD-luciferase reporter activity (compound concentration: 10 uM) was inactive: 3.09.
With CC(C)=CCOc1cc(NC(=S)c2ccncc2)ccc1Cl the TEAD-luciferase reporter activity (compound concentration: 200 nM) was inactive: 2.08, the TEAD-luciferase reporter activity (compound concentration: 2 uM) was inactive: -0.506 and the TEAD-luciferase reporter activity (compound concentration: 10 uM) was inactive: 1.38.
With C=CC(=O)N1CCC(Oc2cc3c(Nc4ccc(Cl)c(Cl)c4F)ncnc3cc2OC)CC1 [Poziotinib] the TEAD-luciferase reporter activity (compound concentration: 200 nM) was inactive: -0.173, the TEAD-luciferase reporter activity (compound concentration: 2 uM) was inactive: -2.59 and the TEAD-luciferase reporter activity (compound concentration: 10 uM) was inactive: -3.23.
O=C(O)c1ccc(CN2CCC(CN[C@@H]3C[C@H]3c3ccccc3)CC2)cc1 was tested, and the TEAD-luciferase reporter activity (compound concentration: 200 nM) was inactive: -0.602, the TEAD-luciferase reporter activity (compound concentration: 2 uM) was inactive: -1.63 and the TEAD-luciferase reporter activity (compound concentration: 10 uM) was inactive: 0.633.
With O=C(NCC12CC3CC(CC(C3)C1)C2)c1cc(CCCNCCCO)ccc1Cl the TEAD-luciferase reporter activity (compound concentration: 200 nM) was inactive: -1.72, the TEAD-luciferase reporter activity (compound concentration: 2 uM) was inactive: 1.63 and the TEAD-luciferase reporter activity (compound concentration: 10 uM) was inactive: 0.503.
For COc1ccc(-c2ccc3ncc4c(c3c2)n(-c2ccc(N3CCNCC3)c(C(F)(F)F)c2)c(=O)n4C)cn1, the TEAD-luciferase reporter activity (compound concentration: 200 nM) was inactive: -2.42, the TEAD-luciferase reporter activity (compound concentration: 2 uM) was inactive: -1.12 and the TEAD-luciferase reporter activity (compound concentration: 10 uM) was active: 7.7.
In the case of O=C(O)CCC(CCCCNS(=O)(=O)c1ccc(Cl)cc1)CCCc1cccnc1 (stereo not drawn), the TEAD-luciferase reporter activity (compound concentration: 200 nM) is reported as inactive: -2.43, the TEAD-luciferase reporter activity (compound concentration: 2 uM) is reported as inactive: -0.792 and the TEAD-luciferase reporter activity (compound concentration: 10 uM) is reported as inactive: -1.3.
CCCOc1ccc(C(=O)CCN2CCCCC2)cc1 was tested, and the TEAD-luciferase reporter activity (compound concentration: 2 uM) was inactive: -0.317.
With CCCOc1ccc(C(=O)CCN2CCCCC2)cc1 [Propipocaine] the TEAD-luciferase reporter activity (compound concentration: 200 nM) was inactive: 0.44 and the TEAD-luciferase reporter activity (compound concentration: 10 uM) was inactive: -0.501.
In the case of CCOC(=O)N1CCC(=C2c3ccc(Cl)cc3CCc3cccnc32)CC1 [loratadine], the TEAD-luciferase reporter activity (compound concentration: 2 uM) is reported as inactive: -0.472.
For CCOC(=O)N1CCC(=C2c3ccc(Cl)cc3CCc3cccnc32)CC1, the TEAD-luciferase reporter activity (compound concentration: 200 nM) was inactive: -0.889 and the TEAD-luciferase reporter activity (compound concentration: 10 uM) was inactive: 1.91.
CCC(=O)OCC(=O)[C@@]1(OC(=O)CC)[C@@H](C)C[C@H]2[C@@H]3CCC4=CC(=O)C=CC4(C)[C@@]3(Cl)[C@@H](O)CC21C (stereo partly drawn) [Beclometasone] was tested, and the TEAD-luciferase reporter activity (compound concentration: 200 nM) was active: 8.69, the TEAD-luciferase reporter activity (compound concentration: 2 uM) was inactive: 0.213 and the TEAD-luciferase reporter activity (compound concentration: 10 uM) was inactive: 2.24.
For COc1ccc(CCNCC(O)COc2ccc(/C(C)=C/C#N)cc2)cc1OC (stereo not drawn), the TEAD-luciferase reporter activity (compound concentration: 200 nM) was inactive: -1.01, the TEAD-luciferase reporter activity (compound concentration: 2 uM) was inactive: -0.634 and the TEAD-luciferase reporter activity (compound concentration: 10 uM) was inactive: 1.58.
For CC(=O)Nc1ncc([N+](=O)[O-])s1, the TEAD-luciferase reporter activity (compound concentration: 200 nM) was inactive: -1, the TEAD-luciferase reporter activity (compound concentration: 2 uM) was inactive: -2.42 and the TEAD-luciferase reporter activity (compound concentration: 10 uM) was inactive: 3.15.
O=C(O)c1cn(-c2ccc(F)cc2)c2nc(N3CCNCC3)c(F)cc2c1=O was tested, and the TEAD-luciferase reporter activity (compound concentration: 200 nM) was inactive: -0.826, the TEAD-luciferase reporter activity (compound concentration: 2 uM) was inactive: -0.749 and the TEAD-luciferase reporter activity (compound concentration: 10 uM) was inactive: 1.54.
With O=C(O)c1ccc2nn[nH]c2c1 the TEAD-luciferase reporter activity (compound concentration: 200 nM) was inactive: -2.84, the TEAD-luciferase reporter activity (compound concentration: 2 uM) was inactive: 3.76 and the TEAD-luciferase reporter activity (compound concentration: 10 uM) was inactive: 3.56.
In the case of CC(C)(C)c1cc(C(C)(C)C)c(NC(=O)c2cnc3ccccc3c2O)cc1O [Ivacaftor], the TEAD-luciferase reporter activity (compound concentration: 200 nM) is reported as inactive: -0.348, the TEAD-luciferase reporter activity (compound concentration: 2 uM) is reported as inactive: -0.874 and the TEAD-luciferase reporter activity (compound concentration: 10 uM) is reported as inactive: 0.587.
